Results from US6485929B1, “Method for inhibiting CD95-independent apoptosis in AIDS” (Deutsches Krebsforschungzentrum Stiftung des offentlichen …, priority 1998, dated 2002).
At least one compound was matched to its structure with a doubt left. Where a SMILES comes first, the peptide text is derived from it. The star is where a group is joined. Cbz = O=C(OCc1ccccc1)*; CH2F = FC*

What was measured:
Format in all cases: cell-based
[1] = test system: CD95-independent apoptosis via CXCR4; assay: Inhibition of CD95-independent apoptosis via CXCR4 by zVAD-fmk
CD95-mediated apoptosis = assay: Inhibition of CD95-mediated apoptosis by zVAD-fmk
[2] = test system: CD95-independent apoptosis via CD4; assay: Inhibition of CD95-independent apoptosis via CD4 by zVAD-fmk

COC(=O)C[C@H](NC(=O)[C@H](C)NC(=O)[C@@H](NC(=O)OCc1ccccc1)C(C)C)C(=O)CF [zVAD-fmk] (Cbz-Val-Ala-Asp(OMe)-CH2F)
Inhibition by zVAD-fmk [1]: − | Inhibition by zVAD-fmk (CD95-mediated apoptosis): + | Inhibition by zVAD-fmk [2]: −
